## Primary screen of a compound library

Protein sequences, listed by entry. Tags and fused reporters are not part of them.
UniProt P9WPC5, whole entry: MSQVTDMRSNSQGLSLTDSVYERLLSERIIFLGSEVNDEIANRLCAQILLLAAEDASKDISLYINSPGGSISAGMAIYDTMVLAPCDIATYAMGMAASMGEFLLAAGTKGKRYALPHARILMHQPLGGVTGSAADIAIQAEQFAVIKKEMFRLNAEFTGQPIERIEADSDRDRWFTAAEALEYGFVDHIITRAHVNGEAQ
UniProt P9WPC3, whole entry partner: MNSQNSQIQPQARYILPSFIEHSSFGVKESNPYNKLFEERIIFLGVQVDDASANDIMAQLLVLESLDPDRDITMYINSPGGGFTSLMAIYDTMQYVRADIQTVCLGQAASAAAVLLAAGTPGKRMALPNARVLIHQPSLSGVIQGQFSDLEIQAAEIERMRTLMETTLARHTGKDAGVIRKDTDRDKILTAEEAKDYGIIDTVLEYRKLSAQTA
UniProt P9WNZ1, whole entry: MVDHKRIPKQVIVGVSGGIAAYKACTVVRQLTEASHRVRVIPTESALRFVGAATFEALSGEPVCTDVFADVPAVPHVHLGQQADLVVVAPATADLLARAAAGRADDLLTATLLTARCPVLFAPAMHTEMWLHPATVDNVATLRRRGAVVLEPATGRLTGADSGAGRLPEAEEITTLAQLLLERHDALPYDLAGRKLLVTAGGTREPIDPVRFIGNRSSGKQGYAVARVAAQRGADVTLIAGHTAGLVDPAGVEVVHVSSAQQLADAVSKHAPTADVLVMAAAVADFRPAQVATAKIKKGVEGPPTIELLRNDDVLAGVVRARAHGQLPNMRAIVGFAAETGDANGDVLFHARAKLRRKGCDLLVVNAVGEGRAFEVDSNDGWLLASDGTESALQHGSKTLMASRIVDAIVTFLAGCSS

ClpP1P2: 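ClpP1P2, Mycobacterium tuberculosis (UniProt P9WPC5 and UniProt P9WPC3). Protease assay of ClpP1P2, read by the AMC dye that it sets free. Tested at 50 µM. Higher reads as stronger inhibition, judged from the few compounds that gave an IC50. Most other retested compounds had strongly negative values. Size under these conditions: about 69,000 compounds, about 10 of them at 50% or above in at least one test.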
CoaBC: 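Enzyme assay of CoaBC with a phosphate dye (Biomol Green) read at 650 nm. Target: Coenzyme A biosynthesis protein CoaBC, Mycobacterium tuberculosis (UniProt P9WNZ1). Tested at 30 µM. Higher reads as stronger inhibition, judged from the few compounds that gave an IC50. Most strong results did not repeat in a second test. About 67,000 compounds were tested under these conditions; 0.06% (about 40) showed 50% or more at least once.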
Toxoplasma: 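Assay of Toxoplasma gondii numbers, read through their beta-galactosidase reporter with a colour substrate. Tested at 10 µM. The record gives no direction; the compounds picked for IC50 retests had high values, so higher reads as fewer parasites. Size under these conditions: about 67,000 compounds, about 260 of them at 50% or above in at least one test.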

Values are the deposited “Percent Effect”, in %. The controls that fix the scale are not given in the record; negative values are as filed. This is an unselected part of the compounds tested. A dash means the value is not listed here; it may have been measured.

SMILES | ClpP1P2 | CoaBC | Toxoplasma
C1CCC(NC2CCCN(Cc3noc(C4CC4)n3)C2)C1 (centres unmarked) | -2.715 | 14.47 | 3.352
O=C(CC1CCCC1)N1C[C@@H]2CCN(c3cccnc3)C[C@@H]2C1 | 1.355 | 2.66 | -
Cc1cc(CSc2nc(=O)ccn2C(C)C)no1 | -13.63 | -1.229 | -9.729
CNc1ncccc1CN1CCC1c1cc(N)nc(C)n1 (centres unmarked) | -6.525 | 3.883 | 10.07
CC(C)N1CCC(NCc2cccnc2N(C)C)CC1 | -18.04 | -4.018 | -4.405
COC[C@@]12CCO[C@@H]1CCN(C(=O)Cc1cccc(F)c1)C2 | 2.672 | -0.1233 | -
Cc1ccnc2c1NC(=O)CN2C(=O)CCC(F)(F)F | -7.166 | -5.283 | 2.17
CN(C)CCN1C(=O)C[C@@H]2[C@@H]1CCN2S(=O)(=O)c1ccccc1 | -13.82 | 6.616 | -
Cc1cc2nc(SCC(=O)NC(C)C)n(Cc3ccco3)c(O)c-2n1 | -22.34 | 3.827 | -11.62
CN(CCC(=O)N1CCc2sccc2C1)Cc1ccc2c(c1)OCCO2 | -22.73 | 12.5 | -17.58
CCN(CC)C(CNC(=O)CCc1nc(C(C)C)no1)c1ccco1 (centres unmarked) | -2.743 | 0.7426 | -26.47
CCn1c(C)cc(C(=O)N2CCC(NC(=O)c3cc(C)no3)CC2)c1C | 0.7884 | 1.921 | 7.692
O=C(CCn1cccn1)NCC(c1cccs1)N1CCCC1 (centres unmarked) | 3.732 | 1.107 | -
O=C1OCCN1Cc1cccc(C(F)(F)F)c1F | -13.97 | -0.2558 | 5.534
CCC(C)N(Cc1cccnc1)C(=O)CCSC (centres unmarked) | -11.21 | -4.39 | -5.087
CCn1nc(C)cc1NC(=O)CCn1nc(C)c(Br)c1C | -28.25 | 3.061 | -5.4
CC1(C)OC(=O)N(CC(=O)N2CCC(c3ccccc3Cl)C2)C1=O (centres unmarked) | -10.18 | 8.414 | 5.857
CN(Cc1n[nH]c2c1CCCC2)c1nc(C2CC2)nc2c1CCNCC2 | -21.62 | -39.61 | 18.4
COCc1nnc(C(=O)N(C)Cc2ccc(OC)cc2)o1 | -0.48 | 5.144 | -6.513
Fc1cccc(N2CCCC3(C2)CN(c2cnccn2)CCO3)c1 (centres unmarked) | 10.54 | -1.833 | 9.099
O=C(Cc1ccccc1F)N1CCN(C(=O)c2ccoc2)CC1 | -7.409 | -0.9447 | 3.771
Cc1ccc2[nH]c(CN(C)c3cc(CCN)nc(C)n3)nc2c1 | 3.921 | -12.73 | -5.312
Cc1nn(C)c2nc(N(CCN(C)C)CC3CCCO3)sc12 (centres unmarked) | 0.9254 | 0 | -4.075
CCN(Cc1cccs1)S(=O)(=O)N(C)C(C)C | -3.866 | 2.317 | 4.883
Cc1ccccc1C(=O)N1C[C@@H](O)[C@H](N2CCOCC2)C1 | -12.76 | -9.864 | 3.906
CC(C)N1CCC(CNCc2c[nH]nc2C(C)(C)C)C1 (centres unmarked) | 21.71 | 2.254 | -2.7
O=C(NC1CC1)c1cn(C2CCN(c3cc(C4CC4)ncn3)CC2)nn1 | 15.99 | 4.958 | 6.029
CCN(Cc1noc(C)n1)C(=O)C(c1ccccc1C)N(C)C (centres unmarked) | 2.69 | 7.631 | 2.53
O=C(C1COCCO1)N1CCN(CC(F)(F)F)c2ccccc21 (centres unmarked) | -9.42 | 0.9709 | 3.905
Cc1cc(N2CCC(Cc3ccncc3)C2)ncn1 (centres unmarked) | -3.715 | 10.21 | -
O=C(Cn1c(=O)n(Cc2ccco2)c2ncccc21)NC1CC1 | -12.73 | 4.369 | -1.523
O=C1CC[C@]2(CC[C@@H](NCc3ccsc3)CC2)N1Cc1ccccc1 | -4.4 | 7.336 | -
CNC(=O)C1CN(Cc2c[nH]cn2)CCN(C2CCOCC2)C1 (centres unmarked) | -16.24 | -4.833 | 1.107
O=C(O)c1cncc(Cc2ccc(F)cc2)c1 | 8.4 | 4.895 | 15.44
O=C(CSC1=NS(=O)(=O)c2cc(F)ccc2N1)c1ccccc1 | 8.104 | 0.6017 | 11.31
COc1cc(C(=O)N(Cc2cnn(C)c2)C(C)C)ccc1C | -29.93 | 3.448 | 5.95
N#Cc1cccc(CN2CC[C@@H]3[C@@H]2CC(=O)N3Cc2cccnc2)c1 | 10.77 | 9.845 | -
Cc1nn(C)c2c(=O)n(CC(=O)NCc3ccccc3Cl)ccc12 | -16.1 | -2.3 | -8.895
COC(C)(C)CC(C)NCc1cn2ccccc2n1 (centres unmarked) | 5.775 | 3.181 | 15.08
CN(C)C(=O)CO[C@H]1CN(Cc2cccc(C#N)c2)[C@@H]2COC[C@H]12 | -13.42 | 0.9772 | -

Once more, the final 5:

- COc1cc(C(=O)N(Cc2cnn(C)c2)C(C)C)ccc1C | ClpP1P2: -29.93%; CoaBC: 3.448%; Toxoplasma: 5.95%
- N#Cc1cccc(CN2CC[C@@H]3[C@@H]2CC(=O)N3Cc2cccnc2)c1 | ClpP1P2: 10.77%; CoaBC: 9.845%
- Cc1nn(C)c2c(=O)n(CC(=O)NCc3ccccc3Cl)ccc12 | ClpP1P2: -16.1%; CoaBC: -2.3%; Toxoplasma: -8.895%
- COC(C)(C)CC(C)NCc1cn2ccccc2n1 (centres unmarked) | ClpP1P2: 5.775%; CoaBC: 3.181%; Toxoplasma: 15.08%
- CN(C)C(=O)CO[C@H]1CN(Cc2cccc(C#N)c2)[C@@H]2COC[C@H]12 | ClpP1P2: -13.42%; CoaBC: 0.9772%

Measurements from “University of Dundee, Small-Polar-MMV Screening Library” (2021), ChEMBL document CHEMBL3988442.